± gives the standard deviation. Only a part is listed here, and it is no random draw. Many entries were measured with a wide error.
tested on: EfPiwi piRISC loaded with piRNA #1 (26 nt); assay: pre-steady-state target cleavage rate (min^-1); guide: piRNA #1 5'p-UGAGGUAGUAGGUUGUAUAGUAUCCA; MIWI and MILI are mouse PIWI proteins and EfPiwi is from a freshwater sponge; tags in brackets are library labels; higher = faster piRNA-guided slicing of the target; settings: auxiliary factor: 500 nM Ephydatia muelleri Gtsf1
Method in brief: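 In HEPES–potassium acetate buffer at 33 °C, […] transcribed, DNA-blocked target RNA library was mixed with 1 nM active affinity-purified piRISC carrying one synthetic guide, with or without 500 nM GTSF1 partner protein, for 0–8 or 0–960 min. Uncleaved targets were sequenced and normalised to depth and to weakly complementary targets; three trials were pooled and k3 was capped at 0.0001 min^-1. The pre-steady-state cleavage rate followed from a burst-and-steady-state fit.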

| Sequence | pre-steady-state target cleavage rate |
| --- | --- |
| GGAGAGGAUACGAUACAACCUACUACCUCA | 0.00899 ± 0.0037 |
| GGAGACCUUACUAUUCAACCUACUACGUCA | 0.00118 ± 0.0034 |
| GGAGACCUAUCUAUACAACCUACUACCAUCA | 0.00291 ± 0.0045 |
| GGAGUGGAUACUAUUCAACCUACUACGUCA | 0.00281 ± 0.0015 |
| GGAGUCCAUACUAUACAACCUACUACCUCA | 0.0575 ± 0.019 |
| GGAGACCUAUCUAUUCAAGCUACUACCUCA | 0.00282 ± 0.0044 |
| GGAGACCAUACUAUACAACGUACAACCUCA | 0.00296 ± 0.0025 |
| GGAGAGGAUACUAUACAAGCUUCUACCUCA | 0.0045 ± 0.0024 |
| GGAGACCUAACUAUACAACCUACUAGCUCA | 0.00459 ± 0.0036 |
| GGAGACGAUACUUUACAACCUACUACCACA | 0.00268 ± 0.0031 |
| GGAGACCUAACUAUACAACCUACUUGCUCA | 0.00145 ± 0.0054 |
| GGAGACCUAUGUAUACAUCCUACUACGUCA | 0.000445 ± 0.0062 |
| GGAGACCUUACUAUACAACCUACUUACCUCA | 0.00224 ± 0.0023 |
| GGAGACCUUACAAUACAACCUACAACCUCA | 0.000986 ± 0.0058 |
| GGAGACCAUACUAUACAACCUACUACGUCA | 0.0053 ± 0.0015 |
| GGAGACCUAACUAUACAAUCUACUACCUCA | 0.00373 ± 0.0046 |
| GGAGACCAUACUAUUCAACCAACUACCUCA | 0.00225 ± 0.0042 |
| GGAGAGGAUACUAUACAAGCUAGUACCUCA | 0.00137 ± 0.0032 |
| GGAGUGGAUACUAUACAACGUACUACCUGA | 0.00457 ± 0.0015 |
| GGAGACCUAUCUAUACAUCGUACUACCUCA | 0.00119 ± 0.0067 |
| GGAGACCUUAGCUAUACAACCUACUACCUCA | 0.0684 ± 0.027 |
| GGAGACCUAUGUAUACAACCUACCACCUCA | 0.00171 ± 0.0059 |
| GGAGACGAUACUAUACAACCAAGUACCUCA | 0.00215 ± 0.0019 |
| GGAGAGGAUACUAUACAACCUACUACGAGA | 0.00374 ± 0.0018 |

At a glance, some entries already given.

| Sequence | pre-steady-state target cleavage rate |
| --- | --- |
| GGAGACCUAACUAUACAACCUACUAGCUCA | 0.00459 ± 0.0036 |
| GGAGACGAUACUUUACAACCUACUACCACA | 0.00268 ± 0.0031 |

From the supplement of paper PMC10338343
